Assay results from the supplement of paper PMC4604168 (melanoma cell lines).
The list shows a part of the results. Many values rest on one well or one pass, so single values are uncertain.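 The apoptosis fraction was the count of cleaved-PARP antibody-stained nuclei relative to all DNA-stained nuclei, imaged in 1,536-well plates. Screening doses were set so most cells survived, and baseline and induced cleaved-PARP levels vary greatly across cell lines.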

Assays:
Assay in all cases: cleaved PARP positive nuclei fraction relative to DMSO control; melanoma cells; higher = more apoptosis
Conditions in all cases: library dose: low library concentration; 72 h
MZ2-MEL = test system: MZ2-MEL
MeWo = test system: MeWo
RPMI7951 = test system: RPMI7951
RVH-421 = test system: RVH-421
SkMel28 = test system: SkMel28
SkMel30 = test system: SkMel30
SkMel5 = test system: SkMel5
UACC257 = test system: UACC257
UACC62 = test system: UACC62
WM115 = test system: WM115
WM1716 = test system: WM1716
WM1745 = test system: WM1745
WM3526 = test system: WM3526
WM3619 = test system: WM3619
WM451Lu = test system: WM451Lu

SMILES	cleaved PARP positive nuclei fraction (MZ2-MEL)	cleaved PARP positive nuclei fraction (MeWo)	cleaved PARP positive nuclei fraction (RPMI7951)	cleaved PARP positive nuclei fraction (RVH-421)	cleaved PARP positive nuclei fraction (SkMel28)	cleaved PARP positive nuclei fraction (SkMel30)	cleaved PARP positive nuclei fraction (SkMel5)	cleaved PARP positive nuclei fraction (UACC257)	cleaved PARP positive nuclei fraction (UACC62)	cleaved PARP positive nuclei fraction (WM115)	cleaved PARP positive nuclei fraction (WM1716)	cleaved PARP positive nuclei fraction (WM1745)	cleaved PARP positive nuclei fraction (WM3526)	cleaved PARP positive nuclei fraction (WM3619)	cleaved PARP positive nuclei fraction (WM451Lu)
COCC[n+]1c2c(n(Cc3cnccn3)c1C)C(=O)c1ccccc1C2=O + COc1ccc(COc2ccc(Cc3cnc(N)nc3N)cc2OC)cc1 [GW2580] (first compound 0.0004 µM, partner dose 1 µM)	134%	38.8%	239%	77.7%	129%	92.1%	33.6%	206%	141%	178%	59.7%	99.2%	68.6%	55.7%	247%
Cc1cc(N2CCOCC2)cc2[nH]c(-c3c(NC[C@@H](O)c4cccc(Cl)c4)cc[nH]c3=O)nc12 + CCCCCCCCCCCC1=C(O)C(=O)C=C(O)C1=O [Embelin] (first compound 0.2 µM, partner dose 1.2 µM)	199%	117%	83.8%	60.1%	94.9%	19.1%	51.8%	107%	111%	40.3%	75.5%	147%	63.4%	81.6%	53.9%
O=C(Nc1cccc(Cl)c1)Nc1ncc(CCNc2ncnc3ccsc23)s1 + Cc1cc([N+](=O)[O-])ccc1NS(=O)(=O)c1cc(Cl)ccc1Cl [FH535] (first compound 0.0008 µM, partner dose 1 µM)	70.4%	161%	76%	119%	194%	29.2%	148%	79.3%	158%	108%	103%	106%	69.7%	93.7%	63.6%
Cc1ccc(NC(=O)c2cccc(N(C)C)c2)cc1NC(=O)c1ccc(O)cc1 + Cn1cc(/C=C2\C(=O)Nc3cccnc32)c2ccccc21 [GW441756] (first compound 2 µM, partner dose 0.4 µM)	40.6%	50.8%	48.5%	118%	132%	68.2%	134%	104%	71.9%	213%	21.1%	118%	179%	77%	108%
Cn1nnc2c(C(N)=O)ncn2c1=O [temozolomide] + c1cc(-c2cnn3cc(-c4ccc(OCCN5CCCCC5)cc4)cnc23)ccn1 [Dorsomorphin] (first compound 2 µM, partner dose 0.4 µM)	170%	27%	41.6%	80.6%	100%	157%	133%	69.2%	171%	64.3%	117%	104%	227%	86.5%	29.4%
Cc1cc(N2CCOCC2)cc2[nH]c(-c3c(NC[C@@H](O)c4cccc(Cl)c4)cc[nH]c3=O)nc12 + COc1ccc(COc2ccc(Cc3cnc(N)nc3N)cc2OC)cc1 [GW2580] (first compound 0.2 µM, partner dose 1 µM)	111%	115%	121%	161%	88.5%	211%	20.3%	174%	142%	48.3%	98%	117%	119%	86.5%	195%
NC(=O)Nc1cc(-c2cccc(F)c2)sc1C(=O)N[C@H]1CCCNC1 + CCCCCCCCCCCC1=C(O)C(=O)C=C(O)C1=O [Embelin] (first compound 0.02 µM, partner dose 1.2 µM)	32.2%	91.6%	114%	97.1%	104%	12.6%	97.8%	159%	38.4%	189%	60%	103%	73.2%	72.4%	70.9%
Cn1nnc2c(C(N)=O)ncn2c1=O [temozolomide] + CCc1ccc(CCOc2ccc(CC3SC(=O)NC3=O)cc2)nc1 [pioglitazone] (first compound 2 µM, partner dose 2 µM)	110%	80.8%	69.6%	48.3%	160%	25.1%	55.4%	81.4%	60.8%	109%	80.8%	108%	64.8%	88.7%	76.1%
C[C@@H]1CCN(C(=O)CC#N)C[C@@H]1N(C)c1ncnc2[nH]ccc12 + Cc1cc([N+](=O)[O-])ccc1NS(=O)(=O)c1cc(Cl)ccc1Cl [FH535] (first compound 1 µM, partner dose 1 µM)	88.3%	56.4%	279%	215%	89.8%	121%	173%	127%	78.9%	48.6%	132%	92.5%	127%	170%	56.6%
Cn1nnc2c(C(N)=O)ncn2c1=O [temozolomide] + O=c1cc(-c2cccc3c2Sc2ccccc2S3)oc(N2CCOCC2)c1 [KU55933] (first compound 2 µM, partner dose 1 µM)	53.8%	106%	71.5%	120%	102%	211%	58.5%	101%	44.2%	202%	90.2%	97.6%	207%	165%	30.7%
C=CCn1c(=O)c2cnc(Nc3ccc(N4CCN(C)CC4)cc3)nc2n1-c1cccc(C(C)(C)O)n1 + CCCCCCCCCCCC1=C(O)C(=O)C=C(O)C1=O [Embelin] (first compound 0.02 µM, partner dose 1.2 µM)	83.9%	67.5%	90.1%	514%	130%	51.6%	548%	179%	405%	89.5%	192%	136%	68.4%	105%	74.2%
Cn1cncc1[C@@](N)(c1ccc(Cl)cc1)c1ccc2c(c1)c(-c1cccc(Cl)c1)cc(=O)n2C [tipifarnib] + O=C(O)C(=O)Nc1sc2c(c1C(=O)O)CCNC2 [TCS401] (first compound 0.01 µM, partner dose 1.66667 µM)	145%	29.1%	79.2%	27.9%	374%	39.5%	90.1%	61.7%	70.7%	92.7%	83.2%	84.5%	62.9%	76.6%	40.7%
CO[C@@H]1[C@H](N(C)C(=O)c2ccccc2)C[C@H]2O[C@]1(C)n1c3ccccc3c3c4c(c5c6ccccc6n2c5c31)C(=O)NC4 [Midostaurin] + COc1cc(N2CCC(N3CCN(C)CC3)CC2)ccc1Nc1ncc(Cl)c(Nc2ccccc2S(=O)(=O)C(C)C)n1 [NVP-TAE684] (first compound 0.08 µM, partner dose 0.08 µM)	99.2%	83.1%	99.6%	66.4%	39%	57.2%	95.5%	69.7%	34.6%	209%	60.7%	138%	72.8%	215%	31.5%
CC1(C)NC(=O)N(c2ccc([N+](=O)[O-])c(C(F)(F)F)c2)C1=O [nilutamide] + O=S(=O)(c1ccccc1)N(CC(F)(F)F)c1ccc(C(O)(C(F)(F)F)C(F)(F)F)cc1 [T0901317] (first compound 1 µM, partner dose 1.4 µM)	91.6%	106%	70.3%	114%	148%	30.8%	32%	228%	83.7%	215%	112%	130%	87.6%	80.3%	115%
C#Cc1cccc(Nc2ncnc3cc(OCCOC)c(OCCOC)cc23)c1 [erlotinib] + Oc1nc(-c2ccc(C(F)(F)F)cc2)nc2c1CSCC2 [XAV939] (first compound 0.8 µM, partner dose 2 µM)	155%	28.7%	94.1%	52.2%	132%	29.6%	60.2%	264%	84.6%	55%	112%	132%	70.3%	77.8%	88.8%
COc1cc(Nc2ncc(F)c(Nc3ccc4c(n3)NC(=O)C(C)(C)O4)n2)cc(OC)c1OC [Tamatinib] + c1cc(-c2cnn3cc(-c4ccc(OCCN5CCCCC5)cc4)cnc23)ccn1 [Dorsomorphin] (first compound 0.4 µM, partner dose 0.4 µM)	186%	117%	92.5%	87.7%	116%	91.9%	65.7%	286%	60.9%	156%	98.4%	196%	97.8%	88%	62.8%
Cc1nc(Nc2ncc(C(=O)Nc3c(C)cccc3Cl)s2)cc(N2CCN(CCO)CC2)n1 [dasatanib] + N#Cc1c(O)c2c(-c3ccc(-c4ccccc4O)cc3)csc2[nH]c1=O [A769662] (first compound 0.004 µM, partner dose 2 µM)	111%	36.3%	120%	117%	202%	57.3%	60.9%	179%	39.2%	214%	110%	189%	67.5%	119%	48.1%
O=C(Nc1cccc(Cl)c1)Nc1ncc(CCNc2ncnc3ccsc23)s1 + COc1ccc(-c2ccc3c(N4CCOCC4)nc(N4C[C@@H](C)O[C@@H](C)C4)nc3n2)cc1CO [KU0063794] (first compound 0.0008 µM, partner dose 0.02 µM)	108%	26.2%	169%	214%	148%	36.4%	29.2%	129%	168%	46%	87.5%	110%	41.5%	86.6%	104%
Cn1c(Nc2ccc(C(F)(F)F)cc2)nc2cc(Oc3ccnc(-c4ncc(C(F)(F)F)[nH]4)c3)ccc21 + N#Cc1c(O)c2c(-c3ccc(-c4ccccc4O)cc3)csc2[nH]c1=O [A769662] (first compound 0.08 µM, partner dose 2 µM)	93.1%	41.1%	61.4%	90.8%	701%	128%	41.3%	1710%	173%	373%	63.3%	170%	132%	86.3%	201%
Nc1cccc2c1CN(C1CCC(=O)NC1=O)C2=O (stereo not given) [lenalidomide] + O=C1NC(=O)/C(=C/c2ccc(-c3ccc(F)cc3O)o2)S1 [AS252424] (first compound 1 µM, partner dose 1 µM)	91.1%	51.8%	77.3%	27.7%	89.8%	25.6%	28.3%	78.6%	39%	297%	96%	103%	68.9%	72.3%	79.7%

Some values from above:
cleaved PARP positive nuclei fraction (WM1716) with C=CCn1c(=O)c2cnc(Nc3ccc(N4CCN(C)CC4)cc3)nc2n1-c1cccc(C(C)(C)O)n1 + CCCCCCCCCCCC1=C(O)C(=O)C=C(O)C1=O [Embelin] (first compound 0.02 µM, partner dose 1.2 µM) reads 192%
cleaved PARP positive nuclei fraction (SkMel5) with Cn1nnc2c(C(N)=O)ncn2c1=O [temozolomide] + CCc1ccc(CCOc2ccc(CC3SC(=O)NC3=O)cc2)nc1 [pioglitazone] (first compound 2 µM, partner dose 2 µM) reads 55.4%
